Reference: paper PMC10787542
No constants are given. Whether binding was seen depends on the method and setting. In cells and extracts the contact can be indirect. Some results given as binding are weak or reduced against the parent protein; the word gives no strength. For some assays here: Sequences can lack the tags named with a protein.

T1: Flag-tagged CHRAC1 (UniProt Q9NRG0)
T1 sequence: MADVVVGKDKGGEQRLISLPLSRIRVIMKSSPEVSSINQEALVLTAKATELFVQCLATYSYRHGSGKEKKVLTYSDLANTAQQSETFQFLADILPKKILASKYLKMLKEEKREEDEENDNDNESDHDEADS


Experiments:
Flag-tagged CHRAC1 = target: T1, Flag-tagged CHRAC1; experiment: co-IP; lysates of 293T cells transfected with Flag-tagged CHRAC1 and HA-tagged YAP; agarose beads with Flag antibody or IgG control overnight at 4 °C; washed 4 times with NP40 buffer
[1] = target: YAP in MDA-MB-231 and Hela cells (UniProt P46937); experiment: co-IP; CHRAC1 overexpressed MDA-MB-231 and Hela cells; YAP precipitated, CHRAC1 detected

binding (Flag-tagged CHRAC1) | binding [1] | Molecule
binds | – | HA-tagged YAP (from UniProt P46937 1-504)
– | binds | CHRAC1 overexpressed in MDA-MB-231 and Hela cells (protein, UniProt Q9NRG0 1-131) MADVVVGKDKGGEQRLISLPLSRIRVIMKSSPEVSSINQEALVLTAKATELFVQCLATYSYRHGSGKEKKVLTYSDLANTAQQSETFQFLADILPKKILASKYLKMLKEEKREEDEENDNDNESDHDEADS
